# Measurements published in patent US10953028B2, “Method of treating heterotopic ossification” (THE REGENTS OF THE UNIVERSITY OF MICHIGAN, priority 2015, dated 2021).
# At least one compound was matched to its structure with a doubt left.
# Experiments:
# burn/tenotomy mice = experiment: Burn/tenotomy trauma-induced HO model (microCT, histology, immunostaining); format: in vivo, mouse; settings: three weeks after burn/tenotomy; PX-478 or rapamycin treatment
# Hif1α = Hif1α protein (Western blot) in tendon-derived mesenchymal cells cultured in hypoxia; format: cell-based, mouse; settings: PX-478 10 μM or rapamycin 5 μM, 0.5% oxygen
smiles,measurement,setting,value
CO[C@H]1C[C@@H]2CC[C@@H](C)[C@@](O)(O2)C(=O)C(=O)N2CCCC[C@H]2C(=O)O[C@H]([C@H](C)C[C@@H]2CC[C@@H](O)[C@H](OC)C2)CC(=O)[C@H](C)/C=C(\C)[C@@H](O)[C@@H](OC)C(=O)[C@H](C)C[C@H](C)/C=C/C=C/C=C/1C [rapamycin],"presence of mesenchymal progenitor cells and formation of mesenchymal condensation (H&E, PDGFRα and/or SOX9 immunostaining)",burn/tenotomy mice,substantially diminished
same,Hif1α produced by mesenchymal cells isolated from tendon,Hif1α,significantly diminished
